# Test results as given in the supplement of paper PMC4371806.
# Over roughly 2,300 compounds, “plate-normalized OD600 growth (mean of duplicates)” has its median near 0.29; the lowest 2% begin near 0.22. This is one part of the list.
# System: Escherichia coli BW25113
# Assay: plate-normalized OD600 growth (mean of duplicates) (OD600 (normalized)); higher = more growth (less inhibition)
# Settings: 10 µM
# Protocol: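 E. coli BW25113 in LB (100 µl, 96-well, no shaking) was exposed to 10 µM of each compound from a ~30,000-member library and grown at 37°C for 24 h or 15°C for 48 h, in duplicate. Growth was read as OD600 and the duplicate ODs were normalized across screening plates to correct plate-to-plate variation. Hits were >3σ below the mean OD600 at 15°C and <2σ below the mean at 37°C.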
SMILES,"plate-normalized OD600 growth (temperature: 15°C, 48 h)","plate-normalized OD600 growth (temperature: 37°C, 24 h)"
NC(=O)C1CCN(CCC(=O)Nc2ccccc2)CC1,0.208,0.651
O=C(Nc1ccccc1)C1CCN(S(=O)(=O)c2ccc(Oc3ccccc3)cc2)CC1,0.251,0.614
CCOC(=O)C1=C(N)N(c2ccc([N+](=O)[O-])cc2)C2=C(C(=O)CCC2)C1c1ccc(C(C)(C)C)s1 (configuration not stated),0.246,0.613
COc1ccccc1Oc1ccc(C(F)(F)F)cc1NC(=O)NC(=O)c1ccccc1F,0.265,0.619
N#Cc1ncc(C(F)(F)F)cc1Oc1ccc(Cl)cc1,0.248,0.603
O=C(Nc1ccccc1)c1cc(S(=O)(=O)N2CCCc3ccccc32)cs1,0.225,0.627
COc1ccc(Cc2nnc(-c3ccc(-c4cccs4)s3)o2)cc1,0.258,0.615
Cc1nc(-c2ccccn2)nc(NCCNc2cccc(C(F)(F)F)n2)c1Cl,0.257,0.626
CCCN(CCC)c1nc(C)nc2c1sc(=S)n2C,0.265,0.625
O=c1[nH]cnc2c1ncn2C1OC(CCl)C(O)C1O (configuration not stated),0.235,0.642
Nn1cnn(Cc2ccccc2)c1=O,0.251,0.627
Cc1cc(C)cc(NC(=O)C(C)Sc2ccccc2)c1 (configuration not stated),0.253,0.608
CC(=O)c1ccc(N2CCCCC2)c(NC(S)Nc2cc(Cl)ccc2Cl)c1 (configuration not stated),0.255,0.621
FC(F)(F)COc1nc(N/N=C/c2cccnc2)nc(N2CCCCC2c2ccccn2)n1 (configuration not stated),0.24,0.574
COC(=O)CCC(NC(=O)c1ccccc1)C(=O)OC (configuration not stated),0.247,0.621
COC(=O)c1ccc(C(CC(=O)c2ccccc2)Nc2ccc(C)cc2)cc1 (configuration not stated),0.24,0.604
O=C(O)c1cccc(N2C(=O)C3C4C=CC(CC4)C3C2=O)c1 (configuration not stated),0.238,0.613
CO/N=C(\C(=O)O)c1csc(Nc2nc(Nc3ccc(OC)cc3)nc(Nc3cc(/C(=N\OC)C(=O)O)cs3)n2)c1,0.248,0.619
COc1ccc(NC(=O)/C=C/c2cccc(Oc3ccccc3)c2)cc1,0.245,0.633
COC(=O)c1ccc(NC(=O)CCCC(=O)O)cc1,0.249,0.648
CC(=O)NC1(C(F)(F)F)NC(=O)N(Cc2ccccc2)C1=O (configuration not stated),0.248,0.628

# 3 neighbouring compounds out of the list so far, quoted:
SMILES,"plate-normalized OD600 growth (temperature: 15°C, 48 h)","plate-normalized OD600 growth (temperature: 37°C, 24 h)"
CCCN(CCC)c1nc(C)nc2c1sc(=S)n2C,0.265,0.625
O=c1[nH]cnc2c1ncn2C1OC(CCl)C(O)C1O (configuration not stated),0.235,0.642
Nn1cnn(Cc2ccccc2)c1=O,0.251,0.627

# Next part

SMILES,"plate-normalized OD600 growth (temperature: 15°C, 48 h)","plate-normalized OD600 growth (temperature: 37°C, 24 h)"
Cc1noc(C)c1C(=O)N1CCOCC1,0.27,0.62
C/C(=C\C(=O)Nc1ccc(F)cc1)Nc1ccc(F)cc1,0.253,0.613
CCN(CC)c1ccc(/C=N/NC(=O)COc2ccc(Cl)cc2)cc1,0.255,0.611
O=C(O)CC1=C(Nc2ccccc2)C(=O)N(c2ccccc2)C1c1ccc(Cl)cc1 (configuration not stated),0.257,0.667
CCOC(=O)c1c(SC)[nH]c2c(C(F)(F)F)cccc2c1=O,0.244,0.627
CC(C)C(C(=O)Nc1ccc(C(=O)/C=C/c2ccccn2)cc1)c1ccc(Cl)cc1 (configuration not stated),0.25,0.667
COC(=O)c1ccc([N+](=O)[O-])cc1N,0.249,0.625
Nc1nc(Sc2cc(-n3cccc3)c(Cl)cc2[N+](=O)[O-])n[nH]1,0.228,0.61
O=C(CSc1nc2ccc(N3C(=O)c4ccc([N+](=O)[O-])cc4C3=O)cc2s1)NC1CC1,0.254,0.625
Cn1c2c(c3c1CCCC3)CCCC2,0.232,0.621
Nc1cc(-c2ccccc2)nn1Cc1ccccc1,0.225,0.613
CCOC(=O)c1[nH]c(Cc2[nH]c(C(=O)OCC)c(C)c2C)c(C)c1C,0.216,0.604
O=C(Nc1nc(-c2ccccc2)cs1)C1CC(O)CN1C(=O)Oc1ccccc1 (configuration not stated),0.263,0.648
Nc1ccccc1C(=O)Nc1cc(C(=O)O)cc(C(=O)O)c1,0.232,0.625
Cc1ccccc1C(=O)N(CC#N)CC#N,0.259,0.57
COc1cc(/C=C2/C(=N)N3N=C(C(C)C)SC3=NC2=O)ccc1OC(=O)c1ccc(F)cc1,0.247,0.611
CC(C)c1ccc(OCC(=O)NC(C)c2ccccc2)cc1 (configuration not stated),0.245,0.602
Cc1nc(-c2nnc(Sc3ccc(C(F)(F)F)cc3[N+](=O)[O-])n2C)cs1,0.234,0.631
CCCCOc1ccccc1NS(=O)(=O)c1cc(C)sc1C,0.234,0.602
CC12NC(=O)NC1(C)NC(=O)N2 (configuration not stated),0.255,0.609
CCC(=O)Nc1ccc(N=Cc2cc(OC)c(OC)c(OC)c2)cc1,0.242,0.604

SMILES,"plate-normalized OD600 growth (temperature: 15°C, 48 h)","plate-normalized OD600 growth (temperature: 37°C, 24 h)"
CCCSc1ccc2nc(N=Cc3cc(OC)c(OC)c(OC)c3)[nH]c2c1,0.228,0.651
CC(=O)C1C(=O)CC(C)(O)C(C(C)=O)C1c1ccc(Br)cc1 (configuration not stated),0.25,0.616
CC(C)(C)OC(=O)NC1CCN(C(=O)c2ccc(Cl)cc2Cl)CC1,0.244,0.629
COC(=O)CN1C(=O)C2(C(C#N)=C(N)Oc3n[nH]c(C)c32)c2ccccc21 (configuration not stated),0.207,0.65
CC(CCc1ccccc1)Nc1cc(N2CCN(S(=O)(=O)c3ccc(Cl)cc3)CC2)ccc1[N+](=O)[O-] (configuration not stated),0.251,0.608
O=C(Nc1ccc(Oc2ccc(NC(=O)C(F)(F)F)c(NC(=O)C(F)(F)F)c2)cc1)C(F)(F)F,0.23,0.622
CN(/C=C/[N+](=O)[O-])c1ccccc1,0.248,0.616
O=C(Nc1ccccc1C(=O)NC1CCCCNC1=O)c1cccs1 (configuration not stated),0.253,0.638
O=C(NC(c1ccccc1)c1c(O)ccc2ccccc12)C1CCCCC1 (configuration not stated),0.248,0.603
COC(=O)c1cc(Cl)sc1N,0.244,0.597
C(=C(c1ccccc1)c1ccccc1)N1CCC1,0.24,0.599
Cc1cc(CN2CC(C)OC(C)C2)cc(C)c1O (configuration not stated),0.253,0.573
CC1CCN(CCC(=O)Nc2ccc(Cl)cc2)CC1,0.261,0.643
CC(=O)C1(C)OC(N)=C(C#N)C(c2ccccc2)C1(C#N)C#N (configuration not stated),0.236,0.634
CC(C)(C)c1cc(SCc2c(C(=O)O)nnn2-c2nonc2N)cc(C(C)(C)C)c1O,0.259,0.62
Cc1nnn(-c2nonc2N)c1C(=O)NNC(=O)c1ccc(Cl)c(Cl)c1,0.243,0.606
C=CCc1cccc2cc(C(=O)NC3CC(C)(C)NC(C)(C)C3)c(=O)oc12,0.229,0.653
C=CCN1C(=O)CCNc2ccccc21,0.245,0.621
Cc1ccc2nc(Nc3nc(C)c4ccccc4n3)[nH]c(=O)c2c1,0.253,0.612
